# Laboratory results published in the supplement of paper PMC8728848.
# Some of the results follow.
# Experiments:
# Assay in all cases: glycan array binding signal (z-score within array); higher = stronger binding
# Conditions in all cases: glycan notation: IUPAC condensed, linker removed
# [1] = biological target: Fuc(a1-2)Gal(b1-4)GlcNAc(b1-3)Gal(b1-4)GlcNAc(b1-3)Gal(b1-4)GlcNAc
# In short: (§1)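 Columns mapping to the same glycan were averaged after glycan names were converted to IUPAC-condensed notation. The data come from 3228 arrays in the Consortium for Functional Glycomics database, limited to those with an available protein sequence. Binding is reported as a within-array Z-score averaged across arrays of one protein sequence and across linkers.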
# [2] = biological target: Fuc(a1-2)Gal(b1-4)GlcNAc(b1-3)GalNAc
# In short: as §1
# [3] = biological target: Fuc(a1-2)Gal(b1-4)GlcNAc(b1-3)[Fuc(a1-2)Gal(b1-4)GlcNAc(b1-6)]GalNAc
# In short: as §1
# [4] = biological target: Fuc(a1-2)Gal(b1-4)GlcNAc(b1-3)[Fuc(a1-3)[Gal(b1-4)]GlcNAc(b1-6)]Gal(b1-4)Glc
# In short: as §1
# [5] = biological target: Fuc(a1-2)Gal(b1-4)GlcNAc(b1-6)GalNAc
# In short: as §1
# [6] = biological target: Fuc(a1-2)Gal(b1-4)GlcNAc6S
# In short: as §1
# [7] = biological target: Fuc(a1-2)Gal(b1-4)[Fuc(a1-3)]GlcNAc
# In short: as §1
# [8] = biological target: Fuc(a1-2)Gal(b1-4)[Fuc(a1-3)]GlcNAc(b1-2)Man(a1-3)[Fuc(a1-2)Gal(b1-4)[Fuc(a1-3)]GlcNAc(b1-2)Man(a1-6)]Man(b1-4)GlcNAc(b1-4)[Fuc(a1-6)]GlcNAc
# In short: as §1
# [9] = biological target: Fuc(a1-2)Gal(b1-4)[Fuc(a1-3)]GlcNAc(b1-2)[Fuc(a1-2)Gal(b1-4)[Fuc(a1-3)]GlcNAc(b1-4)]Man(a1-3)[Fuc(a1-2)Gal(b1-4)[Fuc(a1-3)]GlcNAc(b1-2)Man(a1-6)]Man(b1-4)GlcNAc(b1-4)GlcNAc
# In short: as §1
# [10] = biological target: Fuc(a1-2)Gal(b1-4)[Fuc(a1-3)]GlcNAc(b1-3)Gal(b1-4)[Fuc(a1-3)]GlcNAc
# In short: as §1
# [11] = biological target: Fuc(a1-2)Gal(b1-4)[Fuc(a1-3)]GlcNAc(b1-3)Gal(b1-4)[Fuc(a1-3)]GlcNAc(b1-3)Gal(b1-4)[Fuc(a1-3)]GlcNAc
# In short: as §1
# [12] = biological target: Fuc(a1-2)Gal(b1-4)[Fuc(a1-3)]GlcNAc(b1-3)GalNAc
# In short: as §1
# [13] = biological target: Fuc(a1-2)Gal(b1-4)[Fuc(a1-3)]GlcNAc(b1-3)[Neu5Ac(a2-6)Gal(b1-4)GlcNAc(b1-6)]Gal(b1-4)Glc
# In short: as §1
# [14] = biological target: Fuc(a1-2)Gal3S(b1-4)GlcNAc
# In short: as §1
# [15] = biological target: Fuc(a1-2)Gal6S(b1-3)GlcNAc
# In short: as §1
# [16] = biological target: Fuc(a1-2)Gal6S(b1-3)GlcNAc6S
# In short: as §1
# Fuc(a1-2)Gal6S(b1-4)Glc = biological target: Fuc(a1-2)Gal6S(b1-4)Glc
# In short: as §1
# [17] = biological target: Fuc(a1-2)Gal6S(b1-4)Glc6S
# In short: as §1
# Fuc(a1-2)[Gal(a1-3)]Gal = biological target: Fuc(a1-2)[Gal(a1-3)]Gal
# In short: as §1
# [18] = biological target: Fuc(a1-2)[Gal(a1-3)]Gal(b1-3)GalNAc
# In short: as §1
# [19] = biological target: Fuc(a1-2)[Gal(a1-3)]Gal(b1-3)GalNAc(b1-3)Gal(a1-4)Gal(b1-4)Glc
# In short: as §1
# [20] = biological target: Fuc(a1-2)[Gal(a1-3)]Gal(b1-3)GlcNAc
# In short: as §1
# [21] = biological target: Fuc(a1-2)[Gal(a1-3)]Gal(b1-3)GlcNAc(b1-2)Man(a1-3)[Fuc(a1-2)[Gal(a1-3)]Gal(b1-3)GlcNAc(b1-2)Man(a1-6)]Man(b1-4)GlcNAc(b1-4)GlcNAc
# In short: as §1
# [22] = biological target: Fuc(a1-2)[Gal(a1-3)]Gal(b1-3)GlcNAc(b1-2)Man(a1-3)[Fuc(a1-2)[Gal(a1-3)]Gal(b1-3)GlcNAc(b1-2)Man(a1-6)]Man(b1-4)GlcNAc(b1-4)[Fuc(a1-6)]GlcNAc
# In short: as §1
# [23] = biological target: Fuc(a1-2)[Gal(a1-3)]Gal(b1-3)GlcNAc(b1-3)GalNAc
# In short: as §1
# [24] = biological target: Fuc(a1-2)[Gal(a1-3)]Gal(b1-3)GlcNAc(b1-6)GalNAc
# In short: as §1
# [25] = biological target: Fuc(a1-2)[Gal(a1-3)]Gal(b1-4)Glc
# In short: as §1
# [26] = biological target: Fuc(a1-2)[Gal(a1-3)]Gal(b1-4)GlcNAc
# In short: as §1
# [27] = biological target: Fuc(a1-2)[Gal(a1-3)]Gal(b1-4)GlcNAc(b1-2)Man
# In short: as §1
# [28] = biological target: Fuc(a1-2)[Gal(a1-3)]Gal(b1-4)GlcNAc(b1-2)Man(a1-3)[Fuc(a1-2)[Gal(a1-3)]Gal(b1-4)GlcNAc(b1-2)Man(a1-6)]Man(b1-4)GlcNAc(b1-4)GlcNAc
# In short: as §1
# [29] = biological target: Fuc(a1-2)[Gal(a1-3)]Gal(b1-4)GlcNAc(b1-2)Man(a1-3)[Fuc(a1-2)[Gal(a1-3)]Gal(b1-4)GlcNAc(b1-2)Man(a1-6)]Man(b1-4)GlcNAc(b1-4)[Fuc(a1-6)]GlcNAc
# In short: as §1
# [30] = biological target: Fuc(a1-2)[Gal(a1-3)]Gal(b1-4)GlcNAc(b1-3)GalNAc
# In short: as §1
# [31] = biological target: Fuc(a1-2)[Gal(a1-3)]Gal(b1-4)GlcNAc(b1-3)[Fuc(a1-2)[Gal(a1-3)]Gal(b1-4)GlcNAc(b1-6)]GalNAc
# In short: as §1
# [32] = biological target: Fuc(a1-2)[Gal(a1-3)]Gal(b1-4)GlcNAc(b1-6)GalNAc
# In short: as §1
# [33] = biological target: Fuc(a1-2)[Gal(a1-3)]Gal(b1-4)[Fuc(a1-3)]Glc
# In short: as §1
# [34] = biological target: Fuc(a1-2)[Gal(a1-3)]Gal(b1-4)[Fuc(a1-3)]GlcNAc
# In short: as §1
# [35] = biological target: Fuc(a1-2)[Gal(a1-3)]Gal(b1-4)[Fuc(a1-3)]GlcNAc(b1-3)GalNAc
# In short: as §1
# [36] = biological target: Fuc(a1-2)[Gal(a1-4)]Gal(b1-4)GlcNAc
# In short: as §1
# [37] = biological target: Fuc(a1-2)[GalNAc(a1-3)]Gal
# In short: as §1
# [38] = biological target: Fuc(a1-2)[GalNAc(a1-3)]Gal(b1-3)GalNAc(a1-3)[Fuc(a1-2)]Gal(b1-4)GlcNAc
# In short: as §1
# [39] = biological target: Fuc(a1-2)[GalNAc(a1-3)]Gal(b1-3)GalNAc(b1-3)Gal(a1-4)Gal(b1-4)Glc
# In short: as §1
# [40] = biological target: Fuc(a1-2)[GalNAc(a1-3)]Gal(b1-3)GlcNAc
# In short: as §1
# [41] = biological target: Fuc(a1-2)[GalNAc(a1-3)]Gal(b1-3)GlcNAc(b1-2)Man(a1-3)[Fuc(a1-2)[GalNAc(a1-3)]Gal(b1-3)GlcNAc(b1-2)Man(a1-6)]Man(b1-4)GlcNAc(b1-4)GlcNAc
# In short: as §1
# [42] = biological target: Fuc(a1-2)[GalNAc(a1-3)]Gal(b1-3)GlcNAc(b1-2)Man(a1-3)[Fuc(a1-2)[GalNAc(a1-3)]Gal(b1-3)GlcNAc(b1-2)Man(a1-6)]Man(b1-4)GlcNAc(b1-4)[Fuc(a1-6)]GlcNAc
# In short: as §1
# [43] = biological target: Fuc(a1-2)[GalNAc(a1-3)]Gal(b1-3)GlcNAc(b1-3)GalNAc
# In short: as §1
binder,measurement,setting,value
EULS2 M1 (Oryza sativa) (protein) MVYCRANPNYAMTARNGAVVLAPANPKDEYQHWIKDMRWSTSIKDEEGYPAFALVNKATGQAIKHSLGQSHPVRLVPYNPEVMDESVLWTESRDVGNGFRCIRMVNNIYLNFDAFHGDKYHGGVRDGTDIVLWKLCEGDNQRWKIQPYYILEQKLISEEDLNSAVDHHHHHH,glycan array binding signal (z-score),[1],-0.231
same,glycan array binding signal (z-score),[2],-0.497
same,glycan array binding signal (z-score),[3],-0.457
same,glycan array binding signal (z-score),[4],-0.817
same,glycan array binding signal (z-score),[5],-0.401
same,glycan array binding signal (z-score),[6],-0.194
same,glycan array binding signal (z-score),[7],-0.363
same,glycan array binding signal (z-score),[8],0.739
same,glycan array binding signal (z-score),[9],-0.19
same,glycan array binding signal (z-score),[10],-0.074
same,glycan array binding signal (z-score),[11],-0.582
same,glycan array binding signal (z-score),[12],1.47
same,glycan array binding signal (z-score),[13],-0.018
same,glycan array binding signal (z-score),[14],-0.518
same,glycan array binding signal (z-score),[15],-0.164
same,glycan array binding signal (z-score),[16],1.54
same,glycan array binding signal (z-score),Fuc(a1-2)Gal6S(b1-4)Glc,-1.48
same,glycan array binding signal (z-score),[17],0.933
same,glycan array binding signal (z-score),Fuc(a1-2)[Gal(a1-3)]Gal,0.241
same,glycan array binding signal (z-score),[18],-0.061
same,glycan array binding signal (z-score),[19],-0.582
same,glycan array binding signal (z-score),[20],0.694
same,glycan array binding signal (z-score),[21],-0.005
same,glycan array binding signal (z-score),[22],-0.318
same,glycan array binding signal (z-score),[23],-0.239
same,glycan array binding signal (z-score),[24],-0.427
same,glycan array binding signal (z-score),[25],-0.289
same,glycan array binding signal (z-score),[26],-0.349
same,glycan array binding signal (z-score),[27],-0.549
same,glycan array binding signal (z-score),[28],0.991
same,glycan array binding signal (z-score),[29],-0.508
same,glycan array binding signal (z-score),[30],-0.594
same,glycan array binding signal (z-score),[31],0.307
same,glycan array binding signal (z-score),[32],-1.1
same,glycan array binding signal (z-score),[33],0.116
same,glycan array binding signal (z-score),[34],-0.591
same,glycan array binding signal (z-score),[35],-0.45
same,glycan array binding signal (z-score),[36],-0.241
same,glycan array binding signal (z-score),[37],-0.016
same,glycan array binding signal (z-score),[38],-0.326
same,glycan array binding signal (z-score),[39],-0.009
same,glycan array binding signal (z-score),[40],-0.207
same,glycan array binding signal (z-score),[41],3.99
same,glycan array binding signal (z-score),[42],-0.184
same,glycan array binding signal (z-score),[43],-0.886

# Pulled one by one from above, 3 records:
binder,measurement,setting,value
EULS2 M1 (Oryza sativa) (protein) MVYCRANPNYAMTARNGAVVLAPANPKDEYQHWIKDMRWSTSIKDEEGYPAFALVNKATGQAIKHSLGQSHPVRLVPYNPEVMDESVLWTESRDVGNGFRCIRMVNNIYLNFDAFHGDKYHGGVRDGTDIVLWKLCEGDNQRWKIQPYYILEQKLISEEDLNSAVDHHHHHH,glycan array binding signal (z-score),[29],-0.508
same,glycan array binding signal (z-score),[22],-0.318
same,glycan array binding signal (z-score),[32],-1.1
